Consider 17 compounds from PubChem BioAssay AID493014 (National Center for Advancing Translational Sciences (NCATS), 2011).

The test is described as follows: qHTS Assay to Find Inhibitors of Chronic Active B-Cell Receptor Signaling. To be noted: ABC-DLBCL IkBa-CBG/CBR reporter, luminescence ratio (green luciferase fused to IkBa over red control in TMD8 lymphoma cells), 4 h. A digest of the protocol: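 TMD8 ABC-DLBCL cells carrying doxycycline-inducible green luciferase fused to IkappaBalpha plus unfused red luciferase were exposed to compounds (up to 46 uM) for 4 hrs at 37C. Activity came from the overlap-corrected green/red luminescence ratio.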

The mark [1] stands for this setting: measured here: CBR red luminescence, cell number.
[2] abbreviates: measured here: IkBa-CBG green luminescence.

Some of the results follow. The main result of the screen is listed elsewhere. These columns were measured beside it and carry no call. Most of these compounds were active or inconclusive in the main read-out, so they are no random draw. Words in brackets tell the shape of the fitted curve; partial curves, single points and poor fits give uncertain potencies.

In general, AC50 refers to the concentration giving half of the maximal activity seen.

For the compound `CC1CCCCC1NC(=O)COc1ccccc1C#N` (stereo not given), under setting [1], the AC50 is 29.1 µM [rising, single point].
As for `COc1ccc2[nH]c3c(NCc4ccco4)ncnc3c2c1`, the AC50 under setting [1] was 3.16 µM [rising, partial curve, poor fit].
With `Cc1cc(N2CCN(C(=O)c3ccco3)CC2)n2ncc(-c3ccccc3)c2n1`, under setting [1], the AC50 is 17.8 µM [falling, single point].
Turning to `COc1ccc(CN(CCC(c2ccc(F)cc2)C2CCOC(C)(C)C2)C(=O)c2ccco2)cc1` (stereo not given), the AC50 under setting [1] is 29.1 µM [falling, single point] and the AC50 under setting [2] was 25.9 µM [rising, partial curve, poor fit].
As for `CCOC(=O)c1sc(Nc2nc3c(OC)cccc3s2)cc1C`, under setting [1], the AC50 was 7.31 µM [falling, partial curve, poor fit].
For the compound `Cc1cc(C)cc(OCC(=O)Nc2ccccc2C(=O)NCc2ccco2)c1`, the AC50 under setting [1] was 23.1 µM [falling, single point].
For `Cc1ccc(-c2noc(CCC(=O)Nc3ccccc3C)n2)cc1`, the AC50 under setting [1] was 20 µM [rising, partial curve, poor fit].
The same measure, in the same setting: for `N#CCCn1cc(/C=N/O)c(-c2ccc(-c3ccccc3)cc2)n1` the value was 3.16 µM [rising, partial curve, poor fit].
Take `CCN(CC)c1ccc2cc(-c3nc4ccccc4n3C)c(=O)oc2c1`: the concentration at half-maximal activity (AC50) under setting [1] was 8.91 µM [rising, partial curve] and the AC50 under setting [2] is 2.24 µM [falling, full curve].
Turning to `Cc1cc(C(=O)COc2ccc(C#N)cc2)c(C)n1C1CC1`, the AC50 under setting [1] is 18.4 µM [rising, partial curve].
For `NC(=O)C1CCN(CC(=O)Nc2ccccc2Sc2ccc(Cl)cc2)CC1`, the AC50 under setting [1] was 29.1 µM [falling, single point].
With `O=C(CSc1ncccn1)N1CCN(C(c2ccccc2)c2ccccc2)CC1`, the AC50 under setting [1] is 0.461 µM [falling, partial curve, poor fit].
In the case of `COc1ccc(S(=O)(=O)NCCc2nnc3ccc(SCC(=O)Nc4cc(C)on4)nn23)cc1`, under setting [1], the AC50 was 7.94 µM [rising, partial curve, poor fit].
The same measure, in the same setting: for `CS(=O)(=O)N1N=C(c2ccccc2)CC1c1ccc2c(c1)OCO2` (stereo not given) the value was 9.2 µM [rising, partial curve]; for `Cc1nc(SCC(=O)NCC2CCCO2)c2cc(-c3ccccc3)sc2n1` (stereo not given), 1.3 µM [rising, full curve, poor fit]; for `O=C(N/N=C/c1ccncc1)c1ccc(COc2cccc3cccnc23)cc1`, 6.31 µM [falling, partial curve, poor fit].
For `Cc1ccc(S(=O)(=O)/C(C#N)=C/c2c(N3CC(C)OC(C)C3)nc3ccccn3c2=O)cc1` (stereo not given), the AC50 is, setting by setting: under setting [1], 8.91 µM [falling, partial curve, poor fit]; under setting [2], 11.2 µM [rising, partial curve, poor fit].
